Experimental data as given in the supplement of paper PMC6411743.
± gives the standard deviation of the averaged measurements. This is a selection; strong and weak results do not stand in their true shares. Small differences around the control level are noise.

Protein sequences, listed by entry. Tags and fused reporters are not part of them. Lines headed by an entry give the natural chain unless they say otherwise; changes in a name come on top.
UniProt Q8N1S5: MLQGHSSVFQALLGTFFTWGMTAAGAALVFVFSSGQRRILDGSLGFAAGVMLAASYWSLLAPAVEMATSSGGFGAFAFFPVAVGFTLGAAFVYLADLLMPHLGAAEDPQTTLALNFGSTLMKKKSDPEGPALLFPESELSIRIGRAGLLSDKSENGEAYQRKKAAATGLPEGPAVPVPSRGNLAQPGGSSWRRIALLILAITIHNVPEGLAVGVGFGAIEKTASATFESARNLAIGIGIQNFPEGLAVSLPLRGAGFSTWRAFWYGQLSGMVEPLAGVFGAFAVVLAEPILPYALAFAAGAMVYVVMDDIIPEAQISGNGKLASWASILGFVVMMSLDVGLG
UniProt Q9HAV4: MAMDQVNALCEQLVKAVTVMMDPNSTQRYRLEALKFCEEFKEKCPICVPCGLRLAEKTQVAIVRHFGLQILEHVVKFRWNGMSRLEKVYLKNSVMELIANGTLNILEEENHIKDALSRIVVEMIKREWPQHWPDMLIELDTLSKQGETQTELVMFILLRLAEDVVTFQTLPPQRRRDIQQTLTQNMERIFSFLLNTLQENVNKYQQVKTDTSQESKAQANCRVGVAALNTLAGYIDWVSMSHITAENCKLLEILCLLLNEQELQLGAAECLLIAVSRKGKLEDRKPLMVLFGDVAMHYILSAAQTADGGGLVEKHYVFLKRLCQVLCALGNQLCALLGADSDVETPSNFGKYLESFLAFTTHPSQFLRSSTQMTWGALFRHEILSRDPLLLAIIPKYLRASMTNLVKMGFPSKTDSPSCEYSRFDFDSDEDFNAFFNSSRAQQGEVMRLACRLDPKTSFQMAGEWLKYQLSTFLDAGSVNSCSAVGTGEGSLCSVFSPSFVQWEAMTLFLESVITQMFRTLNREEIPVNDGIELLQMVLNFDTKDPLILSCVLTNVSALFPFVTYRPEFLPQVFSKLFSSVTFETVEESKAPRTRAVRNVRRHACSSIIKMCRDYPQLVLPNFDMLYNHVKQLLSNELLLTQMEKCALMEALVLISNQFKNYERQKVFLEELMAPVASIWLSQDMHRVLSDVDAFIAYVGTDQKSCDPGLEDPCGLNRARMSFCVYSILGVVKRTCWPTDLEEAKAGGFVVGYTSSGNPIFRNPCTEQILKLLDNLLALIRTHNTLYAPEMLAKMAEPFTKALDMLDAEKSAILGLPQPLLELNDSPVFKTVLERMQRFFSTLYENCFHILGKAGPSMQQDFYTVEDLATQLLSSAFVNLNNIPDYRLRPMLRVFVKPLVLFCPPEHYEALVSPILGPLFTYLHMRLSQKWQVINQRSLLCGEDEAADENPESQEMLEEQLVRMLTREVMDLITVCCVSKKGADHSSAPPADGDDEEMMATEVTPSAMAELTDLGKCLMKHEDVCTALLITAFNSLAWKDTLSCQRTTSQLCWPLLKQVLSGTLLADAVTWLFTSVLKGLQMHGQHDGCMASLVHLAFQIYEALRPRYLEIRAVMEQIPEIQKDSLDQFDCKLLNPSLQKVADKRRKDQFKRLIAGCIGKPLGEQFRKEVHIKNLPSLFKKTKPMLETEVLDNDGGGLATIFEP
UniProt O43716: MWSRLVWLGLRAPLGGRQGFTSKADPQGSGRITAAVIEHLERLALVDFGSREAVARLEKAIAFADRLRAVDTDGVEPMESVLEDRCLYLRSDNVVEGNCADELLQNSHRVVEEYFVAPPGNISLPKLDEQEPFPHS
UniProt Q9UL33, whole entry: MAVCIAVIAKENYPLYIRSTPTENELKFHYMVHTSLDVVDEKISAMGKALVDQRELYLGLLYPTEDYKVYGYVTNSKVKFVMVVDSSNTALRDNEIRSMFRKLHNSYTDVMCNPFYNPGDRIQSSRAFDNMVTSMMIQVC
UniProt Q9UPW5: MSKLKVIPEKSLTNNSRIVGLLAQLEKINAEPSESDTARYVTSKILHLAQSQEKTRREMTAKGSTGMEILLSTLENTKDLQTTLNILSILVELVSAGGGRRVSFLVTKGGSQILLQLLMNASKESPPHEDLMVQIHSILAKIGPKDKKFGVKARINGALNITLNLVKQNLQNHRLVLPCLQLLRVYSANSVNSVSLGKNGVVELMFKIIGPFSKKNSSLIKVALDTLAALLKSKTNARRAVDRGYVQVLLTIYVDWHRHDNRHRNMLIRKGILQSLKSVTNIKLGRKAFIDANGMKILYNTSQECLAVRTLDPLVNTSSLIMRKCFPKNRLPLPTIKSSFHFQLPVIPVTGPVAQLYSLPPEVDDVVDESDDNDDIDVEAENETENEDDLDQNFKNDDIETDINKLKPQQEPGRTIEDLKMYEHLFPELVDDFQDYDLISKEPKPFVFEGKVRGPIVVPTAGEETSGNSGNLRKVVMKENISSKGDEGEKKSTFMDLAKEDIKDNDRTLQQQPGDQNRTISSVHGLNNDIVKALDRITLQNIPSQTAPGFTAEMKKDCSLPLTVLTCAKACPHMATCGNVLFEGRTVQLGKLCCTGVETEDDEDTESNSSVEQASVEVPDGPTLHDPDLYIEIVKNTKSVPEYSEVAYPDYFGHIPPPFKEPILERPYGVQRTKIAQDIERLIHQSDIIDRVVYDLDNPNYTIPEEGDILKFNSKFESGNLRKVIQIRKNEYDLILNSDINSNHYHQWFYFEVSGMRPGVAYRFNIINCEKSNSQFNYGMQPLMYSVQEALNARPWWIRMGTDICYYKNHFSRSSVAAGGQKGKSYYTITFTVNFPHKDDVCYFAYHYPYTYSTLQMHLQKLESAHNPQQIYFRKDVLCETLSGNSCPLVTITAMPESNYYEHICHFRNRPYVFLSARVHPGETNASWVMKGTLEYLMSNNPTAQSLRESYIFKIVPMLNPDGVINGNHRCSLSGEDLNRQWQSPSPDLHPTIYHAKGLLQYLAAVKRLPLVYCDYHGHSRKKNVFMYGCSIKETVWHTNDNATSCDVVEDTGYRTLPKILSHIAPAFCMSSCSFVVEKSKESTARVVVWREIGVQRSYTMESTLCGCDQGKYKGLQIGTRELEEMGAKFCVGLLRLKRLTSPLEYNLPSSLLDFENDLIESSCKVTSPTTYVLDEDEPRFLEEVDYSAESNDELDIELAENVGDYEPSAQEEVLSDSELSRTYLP
UniProt Q08722, whole entry: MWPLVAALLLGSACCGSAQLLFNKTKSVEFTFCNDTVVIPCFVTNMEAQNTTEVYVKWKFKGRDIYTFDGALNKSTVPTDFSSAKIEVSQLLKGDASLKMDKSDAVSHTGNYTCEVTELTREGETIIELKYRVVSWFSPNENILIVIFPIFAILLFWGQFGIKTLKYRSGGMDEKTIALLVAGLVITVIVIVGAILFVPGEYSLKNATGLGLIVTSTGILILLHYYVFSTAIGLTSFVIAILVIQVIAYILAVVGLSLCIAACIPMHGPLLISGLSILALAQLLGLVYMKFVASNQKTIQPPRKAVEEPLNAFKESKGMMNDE
UniProt Q9BZG8: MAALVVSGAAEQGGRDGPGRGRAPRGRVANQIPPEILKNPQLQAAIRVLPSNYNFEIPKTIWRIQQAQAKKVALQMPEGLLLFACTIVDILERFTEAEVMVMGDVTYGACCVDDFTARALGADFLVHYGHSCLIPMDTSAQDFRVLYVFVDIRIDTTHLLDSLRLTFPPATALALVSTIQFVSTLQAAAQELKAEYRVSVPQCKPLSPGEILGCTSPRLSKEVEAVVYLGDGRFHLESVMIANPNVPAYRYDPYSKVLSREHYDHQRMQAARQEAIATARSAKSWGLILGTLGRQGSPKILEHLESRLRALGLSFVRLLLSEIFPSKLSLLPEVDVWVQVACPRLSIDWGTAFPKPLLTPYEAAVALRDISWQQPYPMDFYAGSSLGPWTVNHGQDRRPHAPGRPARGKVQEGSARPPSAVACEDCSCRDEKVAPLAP
UniProt Q8TF40: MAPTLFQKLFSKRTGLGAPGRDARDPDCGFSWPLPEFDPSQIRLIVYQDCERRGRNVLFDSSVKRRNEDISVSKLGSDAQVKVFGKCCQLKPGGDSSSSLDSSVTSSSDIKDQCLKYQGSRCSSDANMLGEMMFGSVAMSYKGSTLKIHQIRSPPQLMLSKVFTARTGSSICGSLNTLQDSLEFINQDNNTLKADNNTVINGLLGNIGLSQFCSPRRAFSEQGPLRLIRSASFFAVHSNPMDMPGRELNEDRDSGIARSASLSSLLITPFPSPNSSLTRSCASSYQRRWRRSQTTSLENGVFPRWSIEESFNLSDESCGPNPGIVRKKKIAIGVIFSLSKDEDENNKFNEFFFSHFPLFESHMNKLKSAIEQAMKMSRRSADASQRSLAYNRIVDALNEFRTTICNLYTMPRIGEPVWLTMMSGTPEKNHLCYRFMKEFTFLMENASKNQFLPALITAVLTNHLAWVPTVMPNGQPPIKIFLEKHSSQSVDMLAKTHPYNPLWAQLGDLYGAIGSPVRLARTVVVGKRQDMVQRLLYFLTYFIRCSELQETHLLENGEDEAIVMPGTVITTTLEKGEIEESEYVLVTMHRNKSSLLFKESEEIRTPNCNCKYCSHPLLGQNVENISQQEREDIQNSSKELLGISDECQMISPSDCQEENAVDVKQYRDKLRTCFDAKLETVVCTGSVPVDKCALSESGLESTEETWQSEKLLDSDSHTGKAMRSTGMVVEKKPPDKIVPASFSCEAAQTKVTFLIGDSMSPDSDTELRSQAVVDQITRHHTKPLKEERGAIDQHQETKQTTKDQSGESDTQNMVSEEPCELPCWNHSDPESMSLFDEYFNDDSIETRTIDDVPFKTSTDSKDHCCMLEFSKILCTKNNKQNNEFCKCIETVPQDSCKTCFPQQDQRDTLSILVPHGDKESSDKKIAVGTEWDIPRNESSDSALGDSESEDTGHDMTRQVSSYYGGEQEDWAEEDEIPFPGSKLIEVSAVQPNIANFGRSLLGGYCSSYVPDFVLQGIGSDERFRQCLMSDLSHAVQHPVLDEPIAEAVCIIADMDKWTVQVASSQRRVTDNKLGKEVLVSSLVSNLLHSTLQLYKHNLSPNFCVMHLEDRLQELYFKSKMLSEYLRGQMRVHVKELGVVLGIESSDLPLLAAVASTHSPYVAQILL
UniProt Q9NP61: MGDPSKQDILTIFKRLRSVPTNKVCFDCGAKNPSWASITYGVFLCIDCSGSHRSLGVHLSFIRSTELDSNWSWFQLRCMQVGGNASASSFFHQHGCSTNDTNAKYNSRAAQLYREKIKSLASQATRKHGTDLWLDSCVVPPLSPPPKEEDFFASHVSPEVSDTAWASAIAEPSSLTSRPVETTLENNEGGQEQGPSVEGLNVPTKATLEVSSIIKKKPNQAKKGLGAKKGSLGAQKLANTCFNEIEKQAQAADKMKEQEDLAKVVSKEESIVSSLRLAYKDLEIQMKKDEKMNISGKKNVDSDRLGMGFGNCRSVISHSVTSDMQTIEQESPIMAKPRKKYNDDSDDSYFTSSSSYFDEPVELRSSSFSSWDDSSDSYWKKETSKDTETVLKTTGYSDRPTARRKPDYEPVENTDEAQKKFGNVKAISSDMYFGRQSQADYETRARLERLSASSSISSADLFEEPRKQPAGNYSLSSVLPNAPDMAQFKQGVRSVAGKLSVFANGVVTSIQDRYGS
UniProt Q13449: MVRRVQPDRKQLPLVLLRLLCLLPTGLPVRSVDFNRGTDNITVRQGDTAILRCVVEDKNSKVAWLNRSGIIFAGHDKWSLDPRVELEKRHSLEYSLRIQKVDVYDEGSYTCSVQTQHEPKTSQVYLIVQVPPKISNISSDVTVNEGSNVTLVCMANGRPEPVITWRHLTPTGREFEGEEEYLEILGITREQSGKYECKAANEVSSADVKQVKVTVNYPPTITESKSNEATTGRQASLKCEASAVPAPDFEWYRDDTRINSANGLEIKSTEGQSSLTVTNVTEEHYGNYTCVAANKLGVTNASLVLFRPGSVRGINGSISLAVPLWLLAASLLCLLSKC
UniProt H0UI80: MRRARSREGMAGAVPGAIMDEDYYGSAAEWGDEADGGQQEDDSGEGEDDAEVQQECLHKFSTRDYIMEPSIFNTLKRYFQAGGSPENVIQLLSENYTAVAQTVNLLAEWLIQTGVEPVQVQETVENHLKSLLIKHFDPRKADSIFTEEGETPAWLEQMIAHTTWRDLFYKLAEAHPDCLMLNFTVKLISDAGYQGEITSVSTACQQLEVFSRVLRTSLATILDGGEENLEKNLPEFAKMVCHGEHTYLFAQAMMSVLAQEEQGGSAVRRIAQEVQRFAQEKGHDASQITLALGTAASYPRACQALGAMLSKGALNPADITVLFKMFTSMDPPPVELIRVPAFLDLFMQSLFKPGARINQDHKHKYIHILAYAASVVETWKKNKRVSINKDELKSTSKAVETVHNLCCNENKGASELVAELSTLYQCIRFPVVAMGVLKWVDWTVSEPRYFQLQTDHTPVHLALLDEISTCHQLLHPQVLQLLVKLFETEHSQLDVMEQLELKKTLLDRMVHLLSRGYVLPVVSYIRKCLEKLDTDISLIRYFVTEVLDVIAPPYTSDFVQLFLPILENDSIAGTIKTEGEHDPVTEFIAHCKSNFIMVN
UniProt Q8IXM2, whole entry, looked up: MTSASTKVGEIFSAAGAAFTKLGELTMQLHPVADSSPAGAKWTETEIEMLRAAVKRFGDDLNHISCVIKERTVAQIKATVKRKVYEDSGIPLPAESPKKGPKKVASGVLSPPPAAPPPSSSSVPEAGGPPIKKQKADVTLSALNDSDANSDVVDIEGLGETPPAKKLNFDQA

compound: Nc1ncnc2c1ncn2[C@@H]1O[C@H](COP(=O)(O)OP(=O)(O)NP(=O)(O)O)[C@@H](O)[C@H]1O [adenylyl imidodiphosphate]; experiment: NP40-soluble protein abundance relative to vehicle (solubility fold change) (ratio); higher = more soluble protein in presence of AMP-PNP; conditions: concentration: 0.1mM
How it was run: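 Across three independent experiments, values are fold changes against the detergent-processed vehicle for each replicate, based on vsn-normalised intensities. The samples were Jurkat crude lysate treated with eight concentrations (0.1 to 10 mM) for 10 min at room temperature and then 3 min at 37 °C. Lysate was solubilised with 0.8% NP40 and benzonase, ultracentrifuged, and the supernatant analysed by TMT-labelled LC-MS/MS.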

Target | NP40-soluble protein abundance
H0YHA7 and related entries (UniProt Q07020) | 1.12 ± 0.0087
I3VM54 and related entries (UniProt Q9Y2K7) | 1 ± 0.028
J3QLB2 and related entries (UniProt Q8N1S5) | 0.991 ± 0.024
J3KNL6 and related entries (UniProt O15027) | 1.01 ± 0.019
H0YIE9 and related entries (UniProt O94952) | 1.02 ± 0.021
I3L2J8 and related entries (UniProt Q9UPN4) | 0.996 ± 0.031
H0Y9I3 and related entries (UniProt Q9HAV4) | 1.01 ± 0.037
H0Y4T4 and related entries (UniProt Q5SW79) | 0.997 ± 0.058
H0YIV9 and related entries (UniProt O43716+H0YIV9) | 0.998 ± 0.019
H7C5I3 and related entries (UniProt P35236) | 0.976 ± 0.017
J3KTD6 and related entries (UniProt Q96GD4) | 0.994 ± 0.018
H7C1N3 and related entries (UniProt O15155) | 0.979 ± 0.051
I3L4I4 and related entries (UniProt O75674) | 1.01 ± 0.03
H0Y2S9 and related entries (UniProt Q6WCQ1) | 1.02 ± 0.058
H0YM31 and related entries (UniProt Q16822) | 1.01 ± 0.019
H3BRN4 and related entries (UniProt P80404) | 1 ± 0.012
H3BP13 and related entries (UniProt Q9UL33) | 1 ± 0.027
J3KNS1 and related entries (UniProt Q9UPW5) | 1 ± 0.026
H0YC40 and related entries (UniProt Q08722) | 0.967 ± 0.019

Target | NP40-soluble protein abundance
J3KSP6 and related entries (UniProt Q8N0W3) | 1.02 ± 0.021
I3L2C7 and related entries (UniProt P57678) | 1.08 ± 0.036
G5EA30 and related entries (UniProt Q92879) | 1 ± 0.033
I3L1H5 and related entries (UniProt Q9BZG8) | 1.02 ± 0.003
H0YDK9 and related entries (UniProt Q5H9R7) | 0.951 ± 0.045
H3BP71 and related entries (UniProt O75150) | 1 ± 0.032
H7C1I0 and related entries (UniProt Q96K37) | 1.024 ± 0.0063
I3L397 and related entries (UniProt P63241) | 0.91 ± 0.17
J3KNG8 and related entries (UniProt Q8TF40) | 1.01 ± 0.029
H0Y6A0 and related entries (UniProt Q9NP61) | 0.978 ± 0.024
J3KQH6 and related entries (UniProt P78364) | 1 ± 0.032
J3KNP4 and related entries (UniProt Q9NPR2) | 0.9982 ± 0.0038
G8JL98 and related entries (UniProt Q13569) | 0.963 ± 0.021
H3BLU2 and related entries (UniProt Q13449) | 0.9529 ± 0.0077
H0YKK6 and related entries (UniProt Q06323) | 0.951 ± 0.029
H0UI80 and related entries (UniProt X6RLT1+Q8IXH7+H0UI80) | 0.998 ± 0.049
J3KRD0 and related entries (UniProt Q86W34) | 0.96 ± 0.026
H0YIS7 and related entries (UniProt Q8IXM2+H0YIS7) | 0.969 ± 0.018
H0YAV1 and related entries (UniProt Q7LG56) | 0.99 ± 0.042

same assay, conditions: concentration: 0.5mM

Target | NP40-soluble protein abundance
H0YHA7 and related entries (UniProt Q07020) | 1.04 ± 0.074
I3VM54 and related entries (UniProt Q9Y2K7) | 1.01 ± 0.053
J3QLB2 and related entries (UniProt Q8N1S5) | 0.932 ± 0.044
J3KNL6 and related entries (UniProt O15027) | 0.951 ± 0.051
H0YIE9 and related entries (UniProt O94952) | 1.01 ± 0.045
I3L2J8 and related entries (UniProt Q9UPN4) | 0.981 ± 0.034
H0Y9I3 and related entries (UniProt Q9HAV4) | 0.963 ± 0.029
H0Y4T4 and related entries (UniProt Q5SW79) | 0.99 ± 0.044
H0YIV9 and related entries (UniProt O43716+H0YIV9) | 1.029 ± 0.0036
H7C5I3 and related entries (UniProt P35236) | 0.987 ± 0.043
J3KTD6 and related entries (UniProt Q96GD4) | 1 ± 0.016
H7C1N3 and related entries (UniProt O15155) | 0.984 ± 0.065
I3L4I4 and related entries (UniProt O75674) | 1.01 ± 0.04
H0Y2S9 and related entries (UniProt Q6WCQ1) | 1.01 ± 0.011
H0YM31 and related entries (UniProt Q16822) | 0.988 ± 0.03
H3BRN4 and related entries (UniProt P80404) | 0.968 ± 0.015
H3BP13 and related entries (UniProt Q9UL33) | 1.02 ± 0.025
J3KNS1 and related entries (UniProt Q9UPW5) | 0.979 ± 0.031
H0YC40 and related entries (UniProt Q08722) | 1.01 ± 0.026

Target | NP40-soluble protein abundance
J3KSP6 and related entries (UniProt Q8N0W3) | 0.967 ± 0.041
I3L2C7 and related entries (UniProt P57678) | 0.996 ± 0.073
G5EA30 and related entries (UniProt Q92879) | 1.05 ± 0.034
I3L1H5 and related entries (UniProt Q9BZG8) | 1.02 ± 0.019
H0YDK9 and related entries (UniProt Q5H9R7) | 0.951 ± 0.031
H3BP71 and related entries (UniProt O75150) | 1.04 ± 0.059
H7C1I0 and related entries (UniProt Q96K37) | 1.02 ± 0.032
I3L397 and related entries (UniProt P63241) | 0.812 ± 0.13
J3KNG8 and related entries (UniProt Q8TF40) | 0.998 ± 0.018
H0Y6A0 and related entries (UniProt Q9NP61) | 0.953 ± 0.013
J3KQH6 and related entries (UniProt P78364) | 1.01 ± 0.051
J3KNP4 and related entries (UniProt Q9NPR2) | 0.985 ± 0.027
G8JL98 and related entries (UniProt Q13569) | 1 ± 0.016
H3BLU2 and related entries (UniProt Q13449) | 0.997 ± 0.033
H0YKK6 and related entries (UniProt Q06323) | 1 ± 0.041
H0UI80 and related entries (UniProt X6RLT1+Q8IXH7+H0UI80) | 0.982 ± 0.058
J3KRD0 and related entries (UniProt Q86W34) | 0.984 ± 0.025
H0YIS7 and related entries (UniProt Q8IXM2+H0YIS7) | 1 ± 0.057
H0YAV1 and related entries (UniProt Q7LG56) | 0.96 ± 0.011
